Measured values as given in article PMC7862700.
The list shows a part of the results, in another mix than the full data. At the low end of the ranking, values are background and their order means little.

How the values were obtained:
Assay in all cases: DAPPL (digital affinity profiling via proximity ligation, sequencing)
Conditions in all cases: 10 mM Tris-HCl pH 7.5, 50 mM NaCl, 1 mM DTT, 4% glycerol, room temperature, 30 min; GST-TFs on glutathione beads, 16-mer random dsDNA library, 0.1% …; high values mean tight binding; double strand, one strand shown; scale: fold enrichment (6-mer frequency, TF over GST control)
ELK1 = molecular target: T1, ELK1 (UniProt P19419)
T1 sequence: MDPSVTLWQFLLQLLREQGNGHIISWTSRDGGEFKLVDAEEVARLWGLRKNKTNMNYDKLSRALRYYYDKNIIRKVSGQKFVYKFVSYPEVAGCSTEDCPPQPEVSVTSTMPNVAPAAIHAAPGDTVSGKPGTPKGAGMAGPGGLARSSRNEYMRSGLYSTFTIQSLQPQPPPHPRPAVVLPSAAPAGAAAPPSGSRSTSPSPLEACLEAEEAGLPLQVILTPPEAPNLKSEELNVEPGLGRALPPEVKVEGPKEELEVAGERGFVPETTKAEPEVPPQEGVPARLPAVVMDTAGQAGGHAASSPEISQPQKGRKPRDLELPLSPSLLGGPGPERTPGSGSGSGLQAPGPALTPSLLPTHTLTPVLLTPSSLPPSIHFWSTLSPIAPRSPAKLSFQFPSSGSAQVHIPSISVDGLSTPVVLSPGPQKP

ELK3 = molecular target: T2, ELK3 (UniProt P41970)
T2 sequence: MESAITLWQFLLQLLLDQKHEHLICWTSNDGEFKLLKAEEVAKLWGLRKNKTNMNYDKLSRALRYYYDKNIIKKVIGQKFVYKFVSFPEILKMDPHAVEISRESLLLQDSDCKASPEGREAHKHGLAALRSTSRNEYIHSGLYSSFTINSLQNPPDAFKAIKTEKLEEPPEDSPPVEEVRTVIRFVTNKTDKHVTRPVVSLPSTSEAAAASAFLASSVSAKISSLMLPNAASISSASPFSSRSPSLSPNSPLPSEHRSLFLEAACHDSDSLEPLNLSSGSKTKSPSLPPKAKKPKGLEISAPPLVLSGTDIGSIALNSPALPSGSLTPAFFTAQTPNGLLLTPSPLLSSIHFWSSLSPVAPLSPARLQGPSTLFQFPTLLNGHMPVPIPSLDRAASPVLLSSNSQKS

SPIC = molecular target: T3, SPIC (UniProt Q8N5J4)
T3 sequence: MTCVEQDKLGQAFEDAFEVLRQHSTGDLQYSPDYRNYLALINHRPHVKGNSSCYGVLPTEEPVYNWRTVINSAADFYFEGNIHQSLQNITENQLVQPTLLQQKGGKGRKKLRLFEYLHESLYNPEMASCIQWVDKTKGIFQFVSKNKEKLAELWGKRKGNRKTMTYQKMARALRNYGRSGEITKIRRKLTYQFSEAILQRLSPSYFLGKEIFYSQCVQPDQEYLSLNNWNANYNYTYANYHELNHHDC

ETS2 = molecular target: T4, ETS2 (UniProt P15036)
T4 sequence: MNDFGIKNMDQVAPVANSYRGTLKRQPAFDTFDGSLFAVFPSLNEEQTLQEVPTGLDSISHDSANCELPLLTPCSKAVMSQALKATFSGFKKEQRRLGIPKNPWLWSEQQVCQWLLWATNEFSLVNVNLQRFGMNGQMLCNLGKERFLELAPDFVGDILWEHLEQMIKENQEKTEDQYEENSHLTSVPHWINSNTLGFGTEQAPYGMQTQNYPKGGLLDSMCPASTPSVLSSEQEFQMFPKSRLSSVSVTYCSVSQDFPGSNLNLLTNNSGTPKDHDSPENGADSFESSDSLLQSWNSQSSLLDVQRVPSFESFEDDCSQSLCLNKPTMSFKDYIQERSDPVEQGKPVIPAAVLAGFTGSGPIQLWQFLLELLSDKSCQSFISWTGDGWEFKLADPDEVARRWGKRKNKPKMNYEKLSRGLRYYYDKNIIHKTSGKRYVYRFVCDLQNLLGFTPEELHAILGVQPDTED

ETV3 = molecular target: T5, ETV3 (UniProt P41162-2)
T5 sequence: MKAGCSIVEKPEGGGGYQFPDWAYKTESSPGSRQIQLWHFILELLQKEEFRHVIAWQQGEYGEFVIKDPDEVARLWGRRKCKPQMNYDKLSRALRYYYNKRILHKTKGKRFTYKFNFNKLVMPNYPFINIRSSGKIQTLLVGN

| Sequence | binding signal (ELK1) | binding signal (ELK3) | binding signal (SPIC) | binding signal (ETS2) | binding signal (ETV3) |
| --- | --- | --- | --- | --- | --- |
| GGTAGG | 0.661 | 0.606 | 0.67 | 0.631 | 0.665 |
| CGGAAT | 0.924 | 1.01 | 0.835 | 0.97 |  |
| GAGAAC | 0.415 | 0.44 | 0.426 | 0.39 | 0.397 |
| GGACGG | 0.477 | 0.52 | 0.432 | 0.527 | 0.508 |
| TTGGAC | 0.906 | 0.964 | 0.885 | 0.988 |  |
| GGAGTG | 0.427 | 0.382 | 0.333 | 0.392 | 0.435 |
| GGGTGA | 0.606 | 0.613 | 0.677 | 0.615 | 0.641 |
| CAGACC | 0.811 | 0.791 | 0.788 | 0.765 | 0.803 |
| GAGAGT | 0.358 | 0.357 | 0.322 | 0.315 | 0.376 |
| AGTGGA | 0.724 | 0.867 | 0.856 | 0.811 | 0.799 |
| GGGGCC | 0.552 | 0.55 | 0.488 | 0.576 | 0.605 |
| TGCAGG | 0.914 |  | 1.01 |  | 0.957 |
| GAAGGG | 0.789 | 0.837 | 0.777 | 0.935 | 0.857 |
| CGTAGA | 0.714 | 0.702 | 0.775 | 0.699 | 0.645 |
| AGAGGC | 0.676 | 0.697 | 0.906 | 0.729 | 0.662 |
| CCTAGT | 0.921 | 0.8 | 0.912 |  | 0.911 |
| CAACGG | 0.887 | 0.852 | 0.824 | 0.898 |  |
| TCGGTC | 0.578 | 0.577 | 0.638 | 0.521 | 0.533 |
| GAGTAT | 0.65 | 0.552 | 0.575 | 0.592 | 0.547 |
| AGGACT | 0.96 | 0.926 | 0.816 | 0.879 |  |
| TAGAGC | 0.784 | 0.82 | 0.949 | 0.769 | 0.771 |
| ACGTGC | 0.645 | 0.642 | 0.734 | 0.721 | 0.63 |
| CCATGT | 0.756 | 0.964 | 0.823 | 0.797 | 0.858 |
| GGCCGT | 0.392 | 0.404 | 0.322 | 0.402 | 0.403 |
| AGGTGC | 0.686 | 0.705 | 0.668 | 0.643 | 0.689 |

A second format for some results above:
Sequence,binding signal (ELK1),binding signal (ELK3),binding signal (SPIC),binding signal (ETS2),binding signal (ETV3)
GGGGCC,0.552,0.55,0.488,0.576,0.605
TGCAGG,0.914,,1.01,,0.957
